Reference: article PMC8508650
These are yes or no findings as the source states them, for the method shown. In cells and extracts the contact can be indirect. A result given as binding can be weak or reduced; the word gives no strength.

Chains of the proteins cited; added tags and fusions are not shown. Lines headed by an entry give the natural chain unless they say otherwise; changes in a name come on top. Residues count along the entry.
UniProt P06276, residues 29-602: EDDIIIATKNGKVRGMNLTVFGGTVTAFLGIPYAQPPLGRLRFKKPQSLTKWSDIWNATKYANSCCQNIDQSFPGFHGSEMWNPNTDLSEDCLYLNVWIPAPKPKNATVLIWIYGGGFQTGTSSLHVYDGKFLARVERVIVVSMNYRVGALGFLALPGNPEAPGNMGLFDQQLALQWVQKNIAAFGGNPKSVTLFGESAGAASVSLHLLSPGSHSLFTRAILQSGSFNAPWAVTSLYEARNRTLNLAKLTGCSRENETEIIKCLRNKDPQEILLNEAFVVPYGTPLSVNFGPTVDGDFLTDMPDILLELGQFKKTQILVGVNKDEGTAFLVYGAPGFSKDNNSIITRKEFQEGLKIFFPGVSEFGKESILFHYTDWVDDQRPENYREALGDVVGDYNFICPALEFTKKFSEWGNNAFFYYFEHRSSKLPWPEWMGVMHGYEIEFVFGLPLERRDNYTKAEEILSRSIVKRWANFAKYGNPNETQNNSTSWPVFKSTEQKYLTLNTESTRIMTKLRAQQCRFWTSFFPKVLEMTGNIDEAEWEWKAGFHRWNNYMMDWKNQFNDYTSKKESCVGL
UniProt P02647: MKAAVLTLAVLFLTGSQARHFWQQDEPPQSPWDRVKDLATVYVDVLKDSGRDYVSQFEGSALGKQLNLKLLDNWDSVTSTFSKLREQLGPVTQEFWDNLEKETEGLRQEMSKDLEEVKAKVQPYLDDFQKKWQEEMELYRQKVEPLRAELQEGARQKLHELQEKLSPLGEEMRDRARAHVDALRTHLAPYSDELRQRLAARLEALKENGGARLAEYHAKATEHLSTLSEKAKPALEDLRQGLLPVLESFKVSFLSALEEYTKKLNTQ

Biological target: butyrylcholinesterase (human (endogenous in serum)) (UniProt P06276)
Assay: co-IP; fraction 12 of the iodixanol density gradient of human serum; 10 µg mouse anti-BChE monoclonal antibody 3E8 immobilised on AminoLink Plus Coupling Resin (Pierce Co-IP Kit); overnight at 4 °C; washed two times with 200 µL IP Lysis/Wash Buffer; eluate identified by mass spectrometry; quenched resin without antibody as control

ApoA-I (from UniProt P02647)
binding: binds
